Test results published in patent US20040028607A1.
No constants are given. Whether binding was seen depends on the method and setting. Some entries that bind do so weakly or less than the wild type. Sequences can lack the tags named with a protein.

Sequences of proteins named here, by UniProt entry; tags and fusion partners are left off.
UniProt P68363: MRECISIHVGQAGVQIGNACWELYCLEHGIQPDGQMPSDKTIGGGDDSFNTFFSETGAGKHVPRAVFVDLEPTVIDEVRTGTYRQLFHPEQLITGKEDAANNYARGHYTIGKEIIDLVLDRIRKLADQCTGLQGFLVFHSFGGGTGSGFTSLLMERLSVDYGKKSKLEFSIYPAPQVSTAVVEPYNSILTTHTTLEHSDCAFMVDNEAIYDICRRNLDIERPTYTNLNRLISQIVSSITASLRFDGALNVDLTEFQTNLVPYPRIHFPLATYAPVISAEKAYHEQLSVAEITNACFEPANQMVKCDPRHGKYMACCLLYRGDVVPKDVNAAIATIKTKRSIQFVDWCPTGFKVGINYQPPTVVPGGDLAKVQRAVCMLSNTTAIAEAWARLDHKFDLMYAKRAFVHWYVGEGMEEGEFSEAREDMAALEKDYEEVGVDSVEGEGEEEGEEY

Target: alpha-tubulin acetylated at lysine-40 (endogenous, in HeLa cells or HEK 293T cell lysate) (human (human cell lines)) (UniProt P68363)
Assay: confocal microscopy colocalisation in TSA-treated cells cotransfected with GFP-MIZ-1 and empty FLAG vector

binding: binds
B1: GFP-MIZ-1 (GFP fusion of Myc-interacting zinc finger 1, expressed from pEGFPMIZ-1) (protein, not shown: large carriers)
chain: MDFPQHSQHVLEQLNQQRQLGLLCDCTFVVDGVHFKAHKAVLAACSEYFKMLFVDQKDVVHLDISNAAGLGQMLEFMYTAKLSLSPENVDDVLAVATFLQMQDIITACHALKSLAEPATSPGGNAEALATEGGDKRAKEEKVATSTLSRLEQAGRSTPIGPSRDLKEERGGQAQSAASGAEQTEKADAPREPPPVELKPDPTSGMAAAEAEAALSESSEQEMEVEPARKGEEEQKEQEEQEEEGAGPAEVKEEGSQLENGEAPEENENEESAGTDSGQELGSEARGLRSGTYGDRTESKAYGSVIHKCEDCGKEFTHTGNFKRHIRIHTGEKPFSCRECSKAFSDPAACKAHEKTHSPLKPYGCEECGKSYRLISLLNLHKKRHSGEARYRCEDCGKLFTTSGNLKRHQLVHSGEKPYQCDYCGRSFSDPTSKMRHLETHDTDKEHKCPHCDKKFNQVGNLKAHLKIHIADGPLKCRECGKQFTTSGNLKRHLRIHSGEKPYVCIHCQRQFADPGALQRHVRIHTGEKPCQCVMCGKAFTQASSLIAHVRQHTGEKPYVCERCGKRFVQSSQLANHIRHHDNIRPHKCSVCSKAFVNVGDLSKHIIIHTGEKPYLCDKCGRGFNRVDNLRSHVKTVHQGKAGIKILEPEEGSEVSVVTVDDMVTLATEALAATAVTQLTVVPVGAAVTADETEVLKAEISKAVKQVQEEDPNTHILYACDSCGDKFLDANSLAQHVRIHTAQALVMFQTDADFYQQYGPGGTWPAGQVLQAGELVFRPRDGAEGQPALAETSPTAPECPPPAE
